From article PMC10482377, “Septum site placement in Mycobacteria – identification and characterisation of mycobacterial homologues of Escherichia coli MinD” (Microbiology, 2023)
These are yes or no findings as the source states them, for the method shown. For part of these data: Binding seen in cells or lysates may run through a third protein. Some results given as binding are weak or reduced against the parent protein; the word gives no strength. Sequences can lack the tags named with a protein.

Sequences of proteins named here, by UniProt entry; tags and fusion partners are left off.
UniProt O33208: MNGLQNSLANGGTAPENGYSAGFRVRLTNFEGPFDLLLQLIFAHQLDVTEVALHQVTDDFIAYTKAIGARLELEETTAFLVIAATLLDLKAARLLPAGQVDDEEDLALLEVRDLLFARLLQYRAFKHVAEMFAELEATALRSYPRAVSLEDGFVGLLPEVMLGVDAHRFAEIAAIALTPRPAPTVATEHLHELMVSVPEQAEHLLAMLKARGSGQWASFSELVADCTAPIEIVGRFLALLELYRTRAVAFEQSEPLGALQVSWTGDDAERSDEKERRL

T1: Rv1708 (MPFC bait fusion) (M. tuberculosis) (UniProt P9WLT1)
T1 sequence: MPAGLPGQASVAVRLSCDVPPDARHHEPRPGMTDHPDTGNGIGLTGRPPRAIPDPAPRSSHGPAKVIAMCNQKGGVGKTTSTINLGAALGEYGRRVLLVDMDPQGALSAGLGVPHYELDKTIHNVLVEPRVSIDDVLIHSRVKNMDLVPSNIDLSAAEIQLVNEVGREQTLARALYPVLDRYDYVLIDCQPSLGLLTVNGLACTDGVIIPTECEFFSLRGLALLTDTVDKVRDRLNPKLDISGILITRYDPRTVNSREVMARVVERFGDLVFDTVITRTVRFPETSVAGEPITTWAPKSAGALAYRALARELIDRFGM

T2: GST-Rv1708 (M. tuberculosis) (UniProt P9WLT1)
T2 sequence: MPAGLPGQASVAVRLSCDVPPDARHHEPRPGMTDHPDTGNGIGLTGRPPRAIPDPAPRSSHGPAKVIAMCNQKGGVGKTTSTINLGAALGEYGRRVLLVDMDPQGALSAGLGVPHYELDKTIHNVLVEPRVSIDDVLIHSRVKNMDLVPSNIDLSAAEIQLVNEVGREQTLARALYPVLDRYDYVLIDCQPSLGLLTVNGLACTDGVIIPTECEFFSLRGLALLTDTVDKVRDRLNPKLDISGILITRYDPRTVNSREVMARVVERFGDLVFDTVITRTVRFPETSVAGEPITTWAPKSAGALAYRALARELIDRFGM


Experiments:
[1] = target: T1, Rv1708 (MPFC bait fusion) (M. tuberculosis); test: split reporter
[2] = target: T2, GST-Rv1708 (M. tuberculosis); test: pull-down; equimolar bait (GST-Rv1708) and prey (His-tagged) incubated O/N at 4 °C in PBS + 0.1 % Triton X-100, then GSH beads 4 h at 4 °C; washed; Western blot with anti-6xHis; both purified

Molecule | binding [1] | binding [2]
M. tb ScpA (MPFC prey fusion) (from UniProt O33208 1-278) | binds | –
M. tb ScpA with C-terminal 6xHis-tag (from UniProt O33208 1-278) | – | binds
M. tb ParB (MPFC prey fusion) (protein, UniProt P9WIJ9 1-344) MTQPSRRKGGLGRGLAALIPTGPADGESGPPTLGPRMGSATADVVIGGPVPDTSVMGAIYREIPPSAIEANPRQPRQVFDEEALAELVHSIREFGLLQPIVVRSLAGSQTGVRYQIVMGERRWRAAQEAGLATIPAIVRETGDDNLLRDALLENIHRVQLNPLEEAAAYQQLLDEFGVTHDELAARIGRSRPLITNMIRLLKLPIPVQRRVAAGVLSAGHARALLSLEAGPEAQEELASRIVAEGLSVRATEETVTLANHEANRQAHHSDATTPAPPRRKPIQMPGLQDVAERLSTTFDTRVTVSLGKRKGKIVVEFGSVDDLARIVGLMTTDGRDKGLHRDAL | binds | –
